# PubChem BioAssay AID686937 | Drosophila RNAi Screening Center, 2013
# Test: 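Knock-downs that reduce output of a secreted reporter enzyme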 (primary screen)
# Cell system: Drosophila S2 cells expressing secreted horseradish peroxidase
# Knock-down reagent: long dsRNA against Drosophila genes
# Time to read-out: about 5.5 days (5 days dsRNA, then 12 h reporter induction)
# Treatment: reporter expression induced after 5 days of dsRNA, read 12 h later; inducer not stated
# Detection: 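After 5 days of dsRNA and 12 h of reporter induction, medium peroxidase read by chemiluminescence and scored as per-plate z-score; higher values mean more reporter released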
# Scale: z-score: higher = more reporter secreted into medium
# The deposit covers about 23,000 reagents; shown is a random part of those that have a named target and a result. 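Reduced-secretion tags in replicate 1 do not always agree with the z-scores; no criterion for assigning the tags was given.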 Reagents against one gene are numbered here. A plus sign joins genes that one reagent is predicted to hit. Not stated in the record: the amount of reagent.
gene,dsRNA no.,"z-score, replicate 1","z-score, replicate 2","z-score, replicate 3","z-score, replicate 4","phenotype, replicate 1"
CG2691,1,-2.05,-0.09,,,reduced secretion
CG8180,1,0.36,0.58,,,
CG8180,2,-0.89,-0.51,,,
CG30270,1,0.01,-0.09,,,
smp-30 (Senescence marker protein-30),1,0.6,0.47,,,
CG32457,1,0.65,0.38,0.51,0.39,
CG32457,2,0.4,-0.06,,,
Or47a (Odorant receptor 47a),1,0.21,0.26,,,
Rbp9 (RNA-binding protein 9),1,0.56,0.44,,,
Rbp9 (RNA-binding protein 9),2,0.96,0.79,,,
Sec15 (Secretory 15),1,-0.33,-0.22,,,
"GluRS-m (Glutamyl-tRNA synthetase, mitochondrial)",1,0.13,0.3,,,
Nlp (Nucleoplasmin),1,-0.38,0.01,,,
ERp60 (Endoplasmic reticulum p60),1,-0.33,-0.19,,,
Ptr (Patched-related),1,0.18,0.41,,,
Ptr (Patched-related),2,0.42,-0.47,,,
CG32832,1,-0.09,-0.01,,,
Or49b (Odorant receptor 49b),1,0.34,0.45,,,
Myc,1,-2.33,-3.02,,,reduced secretion
CG6700,1,-0.93,-0.43,,,
CG31556 (retired record),1,0.1,-0.23,0.63,-0.2,
CG31556 (retired record),2,0.28,0.21,,,
CG10317,1,0.29,0.22,,,
CG5418,1,0.76,0.28,,,
CG7409,1,0.25,0.19,,,
Rcd5 (Reduction in Cnn dots 5),1,-0.42,-0.43,,,
Fibp,1,0.36,0.32,,,
Muc55B (Mucin 55B),1,0.11,0.47,,,
CG31300,1,0.3,0.28,,,
CG31862,1,0.17,-0.05,,,
Sas-4 (Spindle assembly abnormal 4),1,0.15,0.16,,,
Prp18,1,-1.19,-0.46,,,
UQCR-Q (Ubiquinol-cytochrome c reductase ubiquinone-binding protein),1,-1.57,-0.34,,,reduced secretion
CG32512,1,0.45,-0.23,0.17,0.39,
CG32512,2,-0.61,-0.04,,,
CG32512,3,1.11,0.3,,,
mRpL18 (mitochondrial ribosomal protein L18),1,0,0.36,,,
Sox102F,1,0.18,0.37,,,
Hsp67Ba (Heat shock gene 67Ba),1,-0.07,0.14,,,
HIPP1 (HP1 and insulator partner protein 1),1,0.1,0.02,,,
CG17343,1,0.17,0.32,,,
CG17343,2,-0.54,-0.37,,,
chb (chromosome bows),1,-0.87,-0.98,,,
CG5516,1,0.53,0.51,,,
CG5516,2,-2.09,0.61,,,reduced secretion
cactin,1,-2.36,-3.94,,,reduced secretion
CG6294 + CG6299 + CG15642,1,0.36,0.51,,,
Evi5 (Ecotropic viral integration site 5),1,0.56,0.38,,,
mxt (mextli),1,0.6,0.35,,,
Gr59c (Gustatory receptor 59c),1,0.09,0.32,,,
BEAF-32 (Boundary element-associated factor of 32kD),1,0.28,0.32,,,
TTLL12 (Tubulin tyrosine ligase-like 12),1,0.41,0.38,,,
CG10514,1,0.11,0.19,,,
unc (uncoordinated),1,0.55,0.31,,,
"Lamtor3 (Late endosomal/lysosomal adaptor, MAPK and MTOR activator 3)",1,-0.84,-0.28,,,
CG14483,1,0.15,0.16,,,
CR43361 (pseudo),1,0.44,0.47,,,
CG8461,1,0.18,0.54,,,
bbx + waw,1,0.43,0.56,,,
bbx + waw,2,0.15,0.17,,,
CG15225,1,-0.05,0.4,,,
Pgant6 (Polypeptide N-Acetylgalactosaminyltransferase 6),1,-3.11,-2.6,,,reduced secretion
HPS4 (Hermansky-Pudlak Syndrome 4),1,0.27,0.06,,,
Prosbeta5 (Proteasome beta5 subunit),1,-4.54,-4.65,,,reduced secretion
Zmynd10 (Zinc finger MYND-type containing 10),1,0.2,-0.16,,,
CG32461,1,0.48,0.24,,,
Cals (Calsyntenin),1,0.13,0.33,,,
Cals (Calsyntenin),2,0.02,-0.71,,,
mgr (merry-go-round),1,0.09,-0.38,,,
CG16719,1,0.07,-0.05,,,
Yeti,1,0.37,0.28,,,
5PtaseI (Inositol polyphosphate-5-phosphatase type I),1,0.23,0.31,,,
5PtaseI (Inositol polyphosphate-5-phosphatase type I),2,0.21,0.13,,,
CG33325,1,0.04,-0.05,,,
Cyp6a2 (Cytochrome P450 6a2),1,0.13,0.46,,,
CG13609,1,0.35,0.33,,,
CG13609,2,0.5,-0.63,,,
Tim13,1,0.3,0.28,,,
CG7766,1,0.58,0.37,,,
dbf (doublefault),1,-0.12,0.27,,,
CG13300,1,0.66,-0.43,,,
Mettl14 (Methyltransferase like 14),1,0.32,0.12,,,

9 entries from above, ordered by “z-score, replicate 2”, lowest first.
gene,dsRNA no.,"z-score, replicate 1","z-score, replicate 2","z-score, replicate 3","z-score, replicate 4","phenotype, replicate 1"
Rcd5 (Reduction in Cnn dots 5),1,-0.42,-0.43,,,
CG31556 (retired record),1,0.1,-0.23,0.63,-0.2,
CG7409,1,0.25,0.19,,,
CG31556 (retired record),2,0.28,0.21,,,
CG10317,1,0.29,0.22,,,
CG5418,1,0.76,0.28,,,
CG31300,1,0.3,0.28,,,
Fibp,1,0.36,0.32,,,
Muc55B (Mucin 55B),1,0.11,0.47,,,
